Results of single-concentration screens

From ChEMBL document CHEMBL3988442, “University of Dundee, Small-Polar-MMV Screening Library” (2021).

Values are the deposited “Percent Effect”, in %. How 0% and 100% were set is not recorded. Most values in the screen are low, and negative values occur. This is an unselected part of the compounds tested.

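Whole-parasite assay of Trypanosoma brucei over 72 hours; the read-out is not stated. Compounds at 30 µM. Direction is inferred from retests: higher values go with stronger inhibition. Values scatter widely below zero; nearly all retest evidence comes from the higher of the two concentrations used. About 64,000 compounds were tested under these conditions; 1.5% (about 940) showed 50% or more at least once.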

Result for CNS(=O)(=O)c1c(C)sc2ccccc12 was -10.76%. Result for O=C(Cc1ccc(-n2cnnn2)cc1)Nc1cnn(CC(F)F)c1 was -10.4%. With CC(C)n1cc(N2CC(C(=O)N3CCCC3)CC2=O)cn1 (stereo unspecified) the screen gave -21.73%. With COCCc1noc(CN(C)C(=O)c2cccc(N3CCCC3=O)c2)n1 the screen gave -30.82%. Cc1nn(C)c2nc(NCCOCCO)sc12 gave 1.231%.

CCC[C@@H]1CN(C(=O)c2cc(-c3cccs3)n(C)n2)C[C@H]1NS(C)(=O)=O read -34.5%. With COCCC(=O)N1CC2(CCN(Cc3ccoc3)C2)C1 the screen gave -24.51%. For COc1c(CNC2CCc3ccccc32)c(C(C)C)nn1C (stereo unspecified) the result was 34.63%. Result for CC(Sc1nnnn1C1CCOCC1)C(=O)NC1CCCCC1 (stereo unspecified) was 44.31%. O=C(O)C(F)(F)F.[H][C@]12CCC(=O)N(c3ccccc3)[C@@]1([H])CCN2c1ncccn1 gave -90.73%.

Result for CN(Cc1noc(C2CC2)n1)C1CCN(CCn2cc(C#N)cn2)C1 (stereo unspecified) was -4.485%. Result for O=C(c1cnc(COc2ccccc2)nc1O)N1CCC(F)(F)CC1 was -13.75%. [H][C@@]12CCCC[C@]1(O)CCN(C(C)=O)[C@H]2c1ccc2c(c1)OCO2 read -50.53%. Result for CCSCCC(=O)NCc1cc2n(n1)CCN(C(=O)N(C)C)C2 was -28.46%. With CCCS(=O)(=O)N1CCN(c2cc(-n3cnc(C)c3C)nc(C)n2)CC1 the screen gave 9.344%.

For CCN1CCC(c2nc3ccc(NC(C)C)cn3n2)CC1.O=C(O)C(F)(F)F the result was 4.944%. COc1cccc2cc(CNC(C)(C)C(=O)N3CCC(O)CC3)oc12 gave 23.19%. COc1ccccc1OCc1cc(C(=O)N2C[C@@H](C)O[C@@H](C)C2)n[nH]1 read -16.67%. Result for COCCN1Cc2nccn2CC(COCc2csc(C)n2)C1.O=C(O)C(F)(F)F.O=C(O)C(F)(F)F (stereo unspecified) was -47.72%. For CCN(CC)CC[C@H]1CN(C(=O)C(C)(C)C)CC[C@H]1CC(=O)O the result was -22.58%.

Result for O=C(c1cccc2c1OCCO2)N1CCCC1c1noc(C2CC2)n1 (stereo unspecified) was 6.279%. Cc1cnn(CC2CCCN2CCCS(=O)(=O)N(C)C)c1 (stereo unspecified) gave 13.01%. CC(=O)c1ccc(OCC(=O)NS(=O)(=O)c2ccc(Cl)s2)cc1 read 7.064%. With Cn1cc(CN2CCC(c3[nH]ncc3S(C)(=O)=O)C2)cn1 (stereo unspecified) the screen gave -15.33%. Cc1cnc(C(=O)N2CCC3(CC2)CN(c2ccccn2)CCO3)cn1 read -19.68%.

Result for Fc1cccc(-c2nnn3c2COC(CNCc2ccsc2)C3)c1.O=C(O)C(F)(F)F (stereo unspecified) was -5.522%. CCc1cc(CNC(=O)NCc2ccc(N3CCCCC3)cc2)on1 gave -106.9%. Result for Cc1cnn(CCNCc2ccccc2OCc2cccnc2)c1 was 2.779%. With O=c1oc(-c2cccs2)nn1CC1(O)CCCCC1 the screen gave -20.51%.